The values below come from the supplement of paper PMC12819154, “High-throughput peptide-centric local stability assay extends protein–ligand identification to membrane proteins, tissues and bacteria” (Nature Structural & Molecular Biology, 2025).

The chains behind the UniProt entries cited, without tags or fusion partners. Where a name states a change or a piece, a line headed by the entry shows the natural chain unless it says otherwise.
UniProt P75800: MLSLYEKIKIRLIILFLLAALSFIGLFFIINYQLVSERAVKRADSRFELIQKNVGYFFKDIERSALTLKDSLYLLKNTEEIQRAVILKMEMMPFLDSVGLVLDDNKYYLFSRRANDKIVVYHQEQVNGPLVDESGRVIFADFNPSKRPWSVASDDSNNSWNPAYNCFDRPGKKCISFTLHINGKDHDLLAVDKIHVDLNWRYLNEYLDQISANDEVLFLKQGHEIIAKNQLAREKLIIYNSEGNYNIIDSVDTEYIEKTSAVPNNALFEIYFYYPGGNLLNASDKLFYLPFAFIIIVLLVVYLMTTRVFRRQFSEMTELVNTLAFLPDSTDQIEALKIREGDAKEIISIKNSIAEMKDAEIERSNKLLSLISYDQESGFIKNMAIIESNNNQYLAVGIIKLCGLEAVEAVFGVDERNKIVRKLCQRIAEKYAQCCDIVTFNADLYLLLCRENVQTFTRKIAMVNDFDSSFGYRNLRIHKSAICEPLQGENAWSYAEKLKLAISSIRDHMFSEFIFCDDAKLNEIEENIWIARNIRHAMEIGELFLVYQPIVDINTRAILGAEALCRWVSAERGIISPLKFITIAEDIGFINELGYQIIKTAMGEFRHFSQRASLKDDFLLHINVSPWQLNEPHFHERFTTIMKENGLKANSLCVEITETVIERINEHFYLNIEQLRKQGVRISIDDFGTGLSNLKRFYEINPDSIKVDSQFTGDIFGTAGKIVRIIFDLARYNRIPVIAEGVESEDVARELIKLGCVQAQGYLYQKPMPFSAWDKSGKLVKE
UniProt P76044: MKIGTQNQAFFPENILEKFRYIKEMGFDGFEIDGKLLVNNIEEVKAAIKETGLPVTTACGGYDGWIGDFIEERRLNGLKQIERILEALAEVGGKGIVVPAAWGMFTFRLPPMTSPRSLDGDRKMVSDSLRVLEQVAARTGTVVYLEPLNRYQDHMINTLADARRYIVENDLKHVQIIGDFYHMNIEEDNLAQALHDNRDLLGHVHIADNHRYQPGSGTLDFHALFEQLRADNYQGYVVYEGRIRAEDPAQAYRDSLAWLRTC
UniProt P75989: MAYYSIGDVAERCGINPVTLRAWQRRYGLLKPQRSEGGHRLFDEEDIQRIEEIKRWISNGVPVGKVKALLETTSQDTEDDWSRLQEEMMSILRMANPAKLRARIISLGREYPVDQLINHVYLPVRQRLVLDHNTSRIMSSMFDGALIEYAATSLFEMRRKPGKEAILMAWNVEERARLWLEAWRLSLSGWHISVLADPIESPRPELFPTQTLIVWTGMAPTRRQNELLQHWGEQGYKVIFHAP
UniProt P75792: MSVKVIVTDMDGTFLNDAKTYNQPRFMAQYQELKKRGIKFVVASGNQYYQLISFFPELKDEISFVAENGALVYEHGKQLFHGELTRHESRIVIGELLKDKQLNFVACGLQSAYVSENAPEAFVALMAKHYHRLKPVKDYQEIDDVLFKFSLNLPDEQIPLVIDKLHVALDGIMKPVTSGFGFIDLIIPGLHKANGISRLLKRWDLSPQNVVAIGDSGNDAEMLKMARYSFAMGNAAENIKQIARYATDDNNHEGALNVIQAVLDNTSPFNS
UniProt P75818: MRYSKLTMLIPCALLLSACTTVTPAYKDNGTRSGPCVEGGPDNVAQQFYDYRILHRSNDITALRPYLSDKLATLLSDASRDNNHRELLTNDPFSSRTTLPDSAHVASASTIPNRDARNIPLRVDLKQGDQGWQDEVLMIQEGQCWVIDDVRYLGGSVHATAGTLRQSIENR
UniProt P76280: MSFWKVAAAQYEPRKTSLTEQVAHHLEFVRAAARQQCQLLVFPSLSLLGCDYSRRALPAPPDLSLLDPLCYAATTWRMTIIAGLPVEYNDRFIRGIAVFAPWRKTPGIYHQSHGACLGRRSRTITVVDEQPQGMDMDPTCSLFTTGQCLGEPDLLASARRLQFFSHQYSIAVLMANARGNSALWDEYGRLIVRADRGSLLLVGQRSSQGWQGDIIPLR
UniProt P75737: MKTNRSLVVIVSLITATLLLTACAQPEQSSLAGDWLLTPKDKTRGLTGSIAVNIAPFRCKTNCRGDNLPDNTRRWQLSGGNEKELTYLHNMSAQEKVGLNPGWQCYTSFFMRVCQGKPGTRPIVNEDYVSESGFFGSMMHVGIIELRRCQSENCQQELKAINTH
UniProt P75811: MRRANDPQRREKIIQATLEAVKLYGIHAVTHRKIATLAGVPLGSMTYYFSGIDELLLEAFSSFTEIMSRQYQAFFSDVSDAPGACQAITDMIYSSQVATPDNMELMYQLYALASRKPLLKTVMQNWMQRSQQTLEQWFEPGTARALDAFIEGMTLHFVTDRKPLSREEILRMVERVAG
UniProt P76172: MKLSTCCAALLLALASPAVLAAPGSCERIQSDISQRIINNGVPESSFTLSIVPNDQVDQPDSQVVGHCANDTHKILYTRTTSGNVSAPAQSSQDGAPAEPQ
UniProt P76062: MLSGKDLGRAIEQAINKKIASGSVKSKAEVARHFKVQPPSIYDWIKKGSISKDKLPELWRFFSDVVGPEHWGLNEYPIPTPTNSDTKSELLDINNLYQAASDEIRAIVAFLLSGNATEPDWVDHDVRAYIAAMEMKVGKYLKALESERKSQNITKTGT
UniProt P76073: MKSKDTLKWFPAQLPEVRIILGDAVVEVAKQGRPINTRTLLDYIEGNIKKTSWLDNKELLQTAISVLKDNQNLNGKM
UniProt P75764: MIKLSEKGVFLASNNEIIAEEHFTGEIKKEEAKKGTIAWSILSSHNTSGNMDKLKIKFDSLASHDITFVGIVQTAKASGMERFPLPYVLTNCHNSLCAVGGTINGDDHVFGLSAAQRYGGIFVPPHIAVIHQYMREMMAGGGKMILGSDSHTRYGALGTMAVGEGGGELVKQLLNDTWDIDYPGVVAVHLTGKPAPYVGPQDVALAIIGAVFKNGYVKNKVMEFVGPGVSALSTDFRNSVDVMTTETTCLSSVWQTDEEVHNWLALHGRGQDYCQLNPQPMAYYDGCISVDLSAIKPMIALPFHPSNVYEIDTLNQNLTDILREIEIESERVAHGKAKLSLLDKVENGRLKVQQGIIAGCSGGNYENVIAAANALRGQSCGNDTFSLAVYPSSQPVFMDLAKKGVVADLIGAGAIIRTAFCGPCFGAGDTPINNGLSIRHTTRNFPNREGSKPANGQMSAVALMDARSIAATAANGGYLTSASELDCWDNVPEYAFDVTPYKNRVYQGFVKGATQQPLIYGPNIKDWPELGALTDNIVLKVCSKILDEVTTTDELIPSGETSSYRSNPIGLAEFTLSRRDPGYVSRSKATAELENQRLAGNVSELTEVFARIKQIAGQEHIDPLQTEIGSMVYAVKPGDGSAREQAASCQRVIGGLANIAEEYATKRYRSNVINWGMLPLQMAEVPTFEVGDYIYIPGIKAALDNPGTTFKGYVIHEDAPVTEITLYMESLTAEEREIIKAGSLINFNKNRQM
UniProt P76176: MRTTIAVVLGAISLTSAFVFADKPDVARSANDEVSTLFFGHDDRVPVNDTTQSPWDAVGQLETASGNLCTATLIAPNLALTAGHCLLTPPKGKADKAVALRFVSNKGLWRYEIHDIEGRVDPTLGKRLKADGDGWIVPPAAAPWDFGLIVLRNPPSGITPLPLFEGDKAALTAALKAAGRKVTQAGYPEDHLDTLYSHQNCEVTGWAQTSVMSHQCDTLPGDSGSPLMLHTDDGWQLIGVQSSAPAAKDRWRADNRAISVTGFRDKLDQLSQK
UniProt P76182: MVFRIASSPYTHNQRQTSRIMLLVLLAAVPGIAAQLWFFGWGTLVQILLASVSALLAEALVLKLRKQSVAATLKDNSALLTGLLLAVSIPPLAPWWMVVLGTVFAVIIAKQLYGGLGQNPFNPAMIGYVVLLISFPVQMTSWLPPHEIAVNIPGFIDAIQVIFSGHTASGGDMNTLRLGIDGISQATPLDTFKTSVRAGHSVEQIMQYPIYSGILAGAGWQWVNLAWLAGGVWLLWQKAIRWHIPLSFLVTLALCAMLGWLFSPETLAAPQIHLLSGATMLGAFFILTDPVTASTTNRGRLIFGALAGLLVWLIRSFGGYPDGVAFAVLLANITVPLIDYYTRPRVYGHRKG
UniProt P75990: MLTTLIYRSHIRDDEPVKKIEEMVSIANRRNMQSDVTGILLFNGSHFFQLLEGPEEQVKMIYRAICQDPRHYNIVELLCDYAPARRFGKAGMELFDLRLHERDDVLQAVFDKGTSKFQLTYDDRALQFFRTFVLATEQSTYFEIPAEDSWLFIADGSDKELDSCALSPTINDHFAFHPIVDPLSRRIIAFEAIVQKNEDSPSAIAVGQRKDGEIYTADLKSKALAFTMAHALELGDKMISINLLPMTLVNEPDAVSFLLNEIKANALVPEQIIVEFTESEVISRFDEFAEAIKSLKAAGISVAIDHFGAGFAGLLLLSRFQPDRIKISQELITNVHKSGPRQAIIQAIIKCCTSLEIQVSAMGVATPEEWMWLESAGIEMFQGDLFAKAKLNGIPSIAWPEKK
UniProt P76208: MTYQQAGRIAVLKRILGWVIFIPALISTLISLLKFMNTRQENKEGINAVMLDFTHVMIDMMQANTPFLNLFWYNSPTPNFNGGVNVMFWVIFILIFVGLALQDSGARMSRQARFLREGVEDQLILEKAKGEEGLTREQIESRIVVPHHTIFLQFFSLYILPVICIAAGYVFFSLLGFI
UniProt P77162: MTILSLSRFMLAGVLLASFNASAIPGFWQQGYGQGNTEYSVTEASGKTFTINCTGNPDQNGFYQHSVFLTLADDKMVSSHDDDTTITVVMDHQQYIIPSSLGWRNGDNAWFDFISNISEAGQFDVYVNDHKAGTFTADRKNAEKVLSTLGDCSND
UniProt P76513: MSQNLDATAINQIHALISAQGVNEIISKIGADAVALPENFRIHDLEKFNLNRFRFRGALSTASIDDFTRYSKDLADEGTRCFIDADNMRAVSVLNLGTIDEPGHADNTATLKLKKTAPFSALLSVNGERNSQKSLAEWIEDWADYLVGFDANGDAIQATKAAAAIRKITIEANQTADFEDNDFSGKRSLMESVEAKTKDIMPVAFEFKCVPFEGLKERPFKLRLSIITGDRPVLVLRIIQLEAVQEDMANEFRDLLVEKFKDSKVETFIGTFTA
UniProt P75869: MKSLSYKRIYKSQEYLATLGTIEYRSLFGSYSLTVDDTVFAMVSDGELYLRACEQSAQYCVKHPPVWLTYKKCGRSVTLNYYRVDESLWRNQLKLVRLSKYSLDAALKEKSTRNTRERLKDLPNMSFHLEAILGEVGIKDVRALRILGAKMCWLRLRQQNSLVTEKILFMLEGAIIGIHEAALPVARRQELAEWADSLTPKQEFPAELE
UniProt P76586: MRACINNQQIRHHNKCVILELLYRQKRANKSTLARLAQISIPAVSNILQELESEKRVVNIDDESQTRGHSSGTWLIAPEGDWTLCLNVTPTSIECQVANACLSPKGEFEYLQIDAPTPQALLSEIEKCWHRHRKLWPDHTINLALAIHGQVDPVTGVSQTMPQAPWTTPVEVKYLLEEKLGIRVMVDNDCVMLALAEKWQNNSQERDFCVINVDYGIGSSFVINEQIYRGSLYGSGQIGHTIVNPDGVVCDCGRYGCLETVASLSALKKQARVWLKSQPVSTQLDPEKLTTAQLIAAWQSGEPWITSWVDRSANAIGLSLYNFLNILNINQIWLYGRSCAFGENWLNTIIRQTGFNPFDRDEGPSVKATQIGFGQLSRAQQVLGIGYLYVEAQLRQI
UniProt P76113: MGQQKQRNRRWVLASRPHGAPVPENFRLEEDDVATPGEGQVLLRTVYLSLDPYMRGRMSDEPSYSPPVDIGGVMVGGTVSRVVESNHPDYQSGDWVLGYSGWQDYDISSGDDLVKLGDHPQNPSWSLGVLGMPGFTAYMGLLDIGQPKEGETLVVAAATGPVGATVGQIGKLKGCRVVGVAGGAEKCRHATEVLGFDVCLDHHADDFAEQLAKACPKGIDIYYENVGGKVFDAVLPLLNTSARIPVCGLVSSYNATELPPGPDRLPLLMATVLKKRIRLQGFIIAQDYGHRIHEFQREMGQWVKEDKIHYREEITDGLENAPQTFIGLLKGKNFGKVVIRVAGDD
UniProt P76417: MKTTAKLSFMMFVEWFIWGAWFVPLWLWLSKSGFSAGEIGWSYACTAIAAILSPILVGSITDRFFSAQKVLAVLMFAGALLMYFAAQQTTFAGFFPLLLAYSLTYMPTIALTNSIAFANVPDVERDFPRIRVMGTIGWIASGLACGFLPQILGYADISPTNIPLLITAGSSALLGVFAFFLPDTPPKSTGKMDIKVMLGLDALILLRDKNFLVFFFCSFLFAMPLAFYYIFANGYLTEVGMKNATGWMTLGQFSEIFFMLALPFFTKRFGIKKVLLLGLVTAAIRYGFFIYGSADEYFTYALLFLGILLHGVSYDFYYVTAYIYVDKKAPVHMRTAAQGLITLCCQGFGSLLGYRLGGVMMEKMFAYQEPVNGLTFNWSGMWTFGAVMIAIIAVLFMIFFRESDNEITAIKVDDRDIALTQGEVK
UniProt P76576: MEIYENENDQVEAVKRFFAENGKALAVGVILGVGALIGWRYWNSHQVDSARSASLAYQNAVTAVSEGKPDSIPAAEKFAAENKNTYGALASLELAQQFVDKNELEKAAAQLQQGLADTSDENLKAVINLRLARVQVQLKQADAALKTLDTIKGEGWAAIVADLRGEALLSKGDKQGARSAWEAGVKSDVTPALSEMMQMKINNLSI

This is a selection; strong and weak results do not stand in their true shares. Small differences around the control level are noise.
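Note: lysate desalted by size exclusion to strip endogenous ATP, peptide intensities built from DIA-NN precursor signals, and peptides missing any value discarded before comparison.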

Compound in the test: Nc1ncnc2c1ncn2[C@@H]1O[C@H](COP(=O)(O)OP(=O)(O)OP(=O)(O)O)[C@@H](O)[C@H]1O [adenosine 5'-triphosphate]
The test is described as follows: log2 fold change of tryptic peptide abundance, ligand vs vehicle (limited proteolysis) (log2 ratio); higher = more trypsin-susceptible (destabilized). The note with it: ligand concentration: 5 mM; sample: E. coli desalted lysate; replicate design: treated before aliquoting. The protocol:
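HT-PELSA: desalted E. coli K-12 BW25113 lysate (with 12 mM MgCl2) incubated with 5 mM ATP (pH 7) or water for 30 min at 25 C, then a 4 min trypsin pulse at 22 C. Peptides were quantified by DIA-MS (4 replicates). Value is the peptide log2 fold change (treated/control); negative = stabilized. Scale: negative = ligand-stabilized region.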
As to “UniProt P77165 (peptide sequence: TEQLEVDTR, peptide start residue: 71)”, the log2 fold change was 0.027. As for “UniProt P75800 (peptide sequence: AILGAEALCR, peptide start residue: 557)”, the figure is 0.54; as for “UniProt P76044 (peptide sequence: DLLGHVHIADNHR, peptide start residue: 199)”, -0.0815; as for “UniProt P76002 (peptide sequence: YNVDIQIK, peptide start residue: 126)”, -0.202. Turning to “UniProt P75989 (peptide sequence: WISNGVPVGK, peptide start residue: 56)”, the log2 fold change is 0.156. Then “UniProt P76546 (peptide sequence: HSPFGDDKQ, peptide start residue: 130)”, with -0.602; and “UniProt P75792 (peptide sequence: FMAQYQELK, peptide start residue: 26)”, with 0.344; and “UniProt P76148 (peptide sequence: GHPVFIAQHATATCCRGCLAK, peptide start residue: 66)”, with -0.286. With “UniProt P75818 (peptide sequence: ELLTNDPFSSR, peptide start residue: 86)”, the log2 fold change was determined as 0.304. Then “UniProt P76280 (peptide sequence: KTSLTEQVAHHLEFVR, peptide start residue: 15)”, with 0.375; and “UniProt P75737 (peptide sequence: RCQSENCQQELK, peptide start residue: 148)”, with 0.583. Then “UniProt P75811 (peptide sequence: LYGIHAVTHR, peptide start residue: 23)”, with 0.165; and “UniProt P76172 (peptide sequence: IQSDISQR, peptide start residue: 29)”, with -0.0374; and “UniProt P76251 (peptide sequence: IAAIPGDGIGK, peptide start residue: 7)”, with -0.246. Regarding “UniProt P76062 (peptide sequence: AYIAAMEMK, peptide start residue: 128)”, the log2 fold change was 0.353.

“UniProt P76073 (peptide sequence: TLLDYIEGNIKK, peptide start residue: 39)”: the log2 fold change was determined as 0.0101. Regarding “UniProt P75764 (peptide sequence: AALDNPGTTFK, peptide start residue: 701)”, the log2 fold change is -0.557. Then “UniProt P76176 (peptide sequence: YEIHDIEGR, peptide start residue: 111)”, with -0.336; and “UniProt P76633 (peptide sequence: VLDHIPANR, peptide start residue: 217)”, with -0.294. “UniProt P76182 (peptide sequence: IASSPYTHNQR, peptide start residue: 5)”: the log2 fold change was -0.29. Then “UniProt P75990 (peptide sequence: NEDSPSAIAVGQR, peptide start residue: 197)”, with 0.384. “UniProt P75913 (peptide sequence: GVHVVEDDLLAALDSGKVK, peptide start residue: 228)”: the log2 fold change came out at 0.637. As to “UniProt P76208 (peptide sequence: FLREGVEDQLILEK, peptide start residue: 114)”, the log2 fold change stood at 0.201. Then “UniProt P77161 (peptide sequence: QALMGGFASSR, peptide start residue: 202)”, with 0.627; and “UniProt P75867 (peptide sequence: ASSSFMLAK, peptide start residue: 54)”, with 0.471. Then “UniProt P75972 (peptide sequence: LFEDTAEQTK, peptide start residue: 10)”, with -0.111. Then “UniProt P76342 (peptide sequence: GNDRPPAPAGK, peptide start residue: 52)”, with -0.445.

In the case of “UniProt P77162 (peptide sequence: AGTFTADRK, peptide start residue: 132)”, the log2 fold change is 0.558.

Regarding “UniProt P75938 (peptide sequence: LSAETQATR, peptide start residue: 181)”, the log2 fold change was 0.976. As to “UniProt P76513 (peptide sequence: SLMESVEAK, peptide start residue: 188)”, the log2 fold change came out at 0.0642.

With “UniProt P76270 (peptide sequence: VLATTDYKK, peptide start residue: 150)”, the log2 fold change turned out to be 0.283. As for “UniProt P75966 (peptide sequence: EFIPVQGVYAAGRLDR, peptide start residue: 65)”, the log2 fold change was 0.168. With “UniProt P75869 (peptide sequence: LSKYSLDAALKEK, peptide start residue: 98)”, the log2 fold change is 1.06. As for “UniProt P76586 (peptide sequence: VVNIDDESQTR, peptide start residue: 57)”, the figure is -0.282; as for “UniProt P76569 (peptide sequence: ILGMNSAR, peptide start residue: 51)”, 0.141. As for “UniProt P76156 (peptide sequence: NDLNYQWFYSELKR, peptide start residue: 16)”, the figure is 0.314; as for “UniProt P76113 (peptide sequence: VVGVAGGAEK, peptide start residue: 177)”, -0.136. Consider “UniProt P76417 (peptide sequence: DIALTQGEVK, peptide start residue: 416)”, for which the log2 fold change is -0.0327.

On to “UniProt P76576 (peptide sequence: YWNSHQVDSAR, peptide start residue: 41)”, for which the log2 fold change stood at 0.865. As for “UniProt P77181 (peptide sequence: RLVFDENLRPK, peptide start residue: 185)”, the figure is -0.426.
